These are yes or no findings as the source states them, for the method shown. Some results given as binding are weak or reduced against the parent protein; the word gives no strength.
Target: T1, human EphB4 (binding partner, form not stated) (human) (UniProt P54760)
T1 sequence: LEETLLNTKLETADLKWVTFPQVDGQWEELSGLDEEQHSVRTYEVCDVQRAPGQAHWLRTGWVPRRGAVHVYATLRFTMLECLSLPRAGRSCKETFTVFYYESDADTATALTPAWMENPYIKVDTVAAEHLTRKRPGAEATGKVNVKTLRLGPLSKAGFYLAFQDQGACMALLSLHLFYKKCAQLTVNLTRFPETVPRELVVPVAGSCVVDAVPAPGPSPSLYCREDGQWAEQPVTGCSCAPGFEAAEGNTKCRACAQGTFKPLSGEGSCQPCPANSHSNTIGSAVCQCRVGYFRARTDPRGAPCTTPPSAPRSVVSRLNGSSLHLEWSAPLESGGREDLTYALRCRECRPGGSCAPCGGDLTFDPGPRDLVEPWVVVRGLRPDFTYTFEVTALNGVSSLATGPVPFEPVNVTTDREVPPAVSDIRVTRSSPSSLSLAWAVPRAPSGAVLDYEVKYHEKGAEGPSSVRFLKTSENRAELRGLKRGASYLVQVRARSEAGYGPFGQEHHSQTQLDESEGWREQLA
Test: biochemical assays; EphB4 partner reagent not named

Sequences of proteins named here, by UniProt entry; tags and fusion partners are left off. A change or cut given only in a name is not applied to a line headed by its entry.
UniProt P52799: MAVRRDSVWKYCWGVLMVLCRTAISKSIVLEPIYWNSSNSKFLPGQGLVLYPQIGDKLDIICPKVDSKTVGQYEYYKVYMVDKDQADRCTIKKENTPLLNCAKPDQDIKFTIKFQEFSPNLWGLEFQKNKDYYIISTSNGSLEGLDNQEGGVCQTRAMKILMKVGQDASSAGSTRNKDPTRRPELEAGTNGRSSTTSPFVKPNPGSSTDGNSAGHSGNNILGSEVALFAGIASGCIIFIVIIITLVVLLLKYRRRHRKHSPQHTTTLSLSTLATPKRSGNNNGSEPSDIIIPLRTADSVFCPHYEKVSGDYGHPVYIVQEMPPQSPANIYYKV

For “B2EC (from UniProt P52799 28-225) (ligand)”, the binding was “binds”.
